# Results: the supplement of paper PMC5949888
# ± gives the standard deviation of the averaged measurements. Most values lie at the floor of the assay. Slopes are relative: functional sequences can read slightly below zero.
# Test system: Saccharomyces cerevisiae PS128 hsf1 delta, HSF1(1-493) fusion
# Assay: growth estimate (transactivation domain function in HSF1 fusion, heat-shock survival) (a.u. (slope of normalised read count over time)); higher = stronger growth at 37°C, i.e. more transactivation activity
# Conditions: library: random library
row,Substance,growth estimate
1,VLEWSDAFL,< -0.25
2,VLFCWSSKANNRWDVVVSHS,< -0.25
3,VLFSLRSNPSPLGKVT,< -0.25
4,VLFTTYRP,< -0.25
5,VLGFMSADAGRPKVTGNGAP,< -0.25
6,VLGGTLSRTTVR,< -0.25
7,VLGPVCVQVRLTLSGAFRAP,< -0.25
8,VLGPVNRN,< -0.25
9,VLICNSAFFLPTFNAISAYI,< -0.25
10,VLICSF,< -0.25
11,VLIPLLGLQRWKTRSVRDRL,< -0.25
12,VLISVGVKSKR,< -0.25
13,VLKREKRHYGRSLWRRDRRA,< -0.25
14,VLL,-0.241 ± 0.012
15,VLLGVCCKTAGVTLCNGLGT,< -0.25
16,VLLLCSRRPVYIESSKSARR,< -0.25
17,VLLRRTDSEMHRA,< -0.25
18,VLLSACCCETSAYGLRKQQT,< -0.25
19,VLLTLTSGMIL,< -0.25
20,VLNNVIIFRNGLCCVHRSGL,< -0.25
21,VLPA,< -0.25
22,VLPFRLIHI,< -0.25
23,VLPLHFAL,< -0.25
24,VLPQVASFYP,< -0.25

row,Substance,growth estimate
1,VLPRVWRVSATGNPHRMVIR,< -0.25
2,VLPSFELPVAVLWPRVT,< -0.25
3,VLQIFVSLTIISFRGFRPAS,< -0.25
4,VLQRLRFSGYTVGACKLCRD,< -0.25
5,VLRERNP,< -0.25
6,VLRF,< -0.25
7,VLRGLNGP,< -0.25
8,VLRGNHRTRVNFSEKLSRES,< -0.25
9,VLRGRARKAAGYMLTAYATL,< -0.25
10,VLRRVFQGYG,< -0.25
11,VLRTPKARQSMHCGSYSAPE,< -0.25
12,VLRVLVTGTTNKCPIECSSA,< -0.25
13,VLSAGDVAWLSPGCRDG,-0.217
14,VLSASLNCYTAPSRGRSTFA,< -0.25
15,VLSDKSYPGLMRRIKNSNAS,-0.247
16,VLSE,< -0.25
17,VLSIIWF,< -0.25
18,VLSKCTGRG,< -0.25
19,VLSSHSVGVGSNSDTLTSFD,< -0.25
20,VLST,< -0.25
21,VLSWERYTLHNLCSLARA,< -0.25
22,VLTCLRGRRMIVGVCN,< -0.25
23,VLTM,< -0.25
24,VLVTFFVNWKRSSTNLSQRP,< -0.25

row,Substance,growth estimate
1,VLVWVRVSHCWPSNNGPHS,< -0.25
2,VLWASGDLNSVGCPHNTRER,< -0.25
3,VLYG,< -0.25
4,VMC,< -0.25
5,VMEDVICVSSFHRTSAQPGC,< -0.25
6,VMERRDQREIGMRACRTFRP,< -0.25
7,VMGDFIF,0.0195
8,VMGWPLLIKCEEWASRSVTF,-0.243
9,VMLFSSFMMRVCIPE,< -0.25
10,VMQKGACWRPASRFSAKIRT,< -0.25
11,VMSILLNLKVTHPAGRDDQA,< -0.25
12,VMSRTQDRIYGWTAIHGNSK,-0.24
13,VMVGRERMVR,< -0.25
14,VMYFT,-0.0082
15,VNAGYPVRYCLFRTNLAGQQ,< -0.25
16,VNALRWLGRKR,< -0.25
17,VNDRRVAKRGVLGNAYQCHR,< -0.25
18,VNEM,< -0.25
19,VNG,0.126
20,VNGARLRGGVGLH,< -0.25
21,VNGGVT,< -0.25
22,VNGRACMASWESRFPVYDLP,-0.245
23,VNHSLILVQLFREHKKTP,< -0.25
24,VNIMAPVRQRQCVAS,< -0.25

# A stretch taken from the entries so far, for reference:
row,Substance,growth estimate
7,VLRGLNGP,< -0.25
8,VLRGNHRTRVNFSEKLSRES,< -0.25
9,VLRGRARKAAGYMLTAYATL,< -0.25
10,VLRRVFQGYG,< -0.25
11,VLRTPKARQSMHCGSYSAPE,< -0.25
12,VLRVLVTGTTNKCPIECSSA,< -0.25
13,VLSAGDVAWLSPGCRDG,-0.217
14,VLSASLNCYTAPSRGRSTFA,< -0.25
15,VLSDKSYPGLMRRIKNSNAS,-0.247
16,VLSE,< -0.25
17,VLSIIWF,< -0.25
18,VLSKCTGRG,< -0.25
19,VLSSHSVGVGSNSDTLTSFD,< -0.25
20,VLST,< -0.25
21,VLSWERYTLHNLCSLARA,< -0.25
22,VLTCLRGRRMIVGVCN,< -0.25
23,VLTM,< -0.25
24,VLVTFFVNWKRSSTNLSQRP,< -0.25
1,VLVWVRVSHCWPSNNGPHS,< -0.25
2,VLWASGDLNSVGCPHNTRER,< -0.25
3,VLYG,< -0.25
4,VMC,< -0.25
5,VMEDVICVSSFHRTSAQPGC,< -0.25
6,VMERRDQREIGMRACRTFRP,< -0.25
7,VMGDFIF,0.0195
8,VMGWPLLIKCEEWASRSVTF,-0.243
9,VMLFSSFMMRVCIPE,< -0.25
10,VMQKGACWRPASRFSAKIRT,< -0.25
11,VMSILLNLKVTHPAGRDDQA,< -0.25
12,VMSRTQDRIYGWTAIHGNSK,-0.24
13,VMVGRERMVR,< -0.25
14,VMYFT,-0.0082
15,VNAGYPVRYCLFRTNLAGQQ,< -0.25
16,VNALRWLGRKR,< -0.25
17,VNDRRVAKRGVLGNAYQCHR,< -0.25
18,VNEM,< -0.25
19,VNG,0.126
20,VNGARLRGGVGLH,< -0.25
21,VNGGVT,< -0.25

# Next part

row,Substance,growth estimate
1,VNKQPWLDSRGPVILWQLVS,-0.168
2,VNKWPMQLLARGVTRGSQKS,< -0.25
3,VNLHIQVTRVVKRQVFLRGP,< -0.25
4,VNLLGC,< -0.25
5,VNMPKGQPTEQSGNGIVDNL,< -0.25
6,VNNRTSGKIRAPLNL,< -0.25
7,VNPQKVSITPKVPAGTP,< -0.25
8,VNPQLIRLIADYSHVLGFNR,< -0.25
9,VNPYNSASYAQDWQDCAIFR,< -0.25
10,VNRDGPAPTEVETGNRRGLV,< -0.25
11,VNRSSVQPGYLGCIPTRGPA,< -0.25
12,VNSLSSRDLFLDEHVHKARS,< -0.25
13,VNTDRVCGDGSPFQCGDYSQ,< -0.25
14,VNTRGVIGTLYKRVSRGSRH,< -0.25
15,VPA,< -0.25
16,VPDDDPRDVKNSIRLSGHP,< -0.25
17,VPEWYCARLLVLLAVFSILT,< -0.25
18,VPG,< -0.25
19,VPGAQHLPCSGRCGRRSEN,< -0.25
20,VPHLGVSKTTSRRILCPAAT,< -0.25
21,VPHRGDAIHYPSYSEDKAHE,< -0.25
22,VPHSTTGQDLPSNSMRLTIG,< -0.25
23,VPIALMIHWEQPDLLNGESG,< -0.25
24,VPIGLRKSRHTAAPWSHFST,< -0.25

row,Substance,growth estimate
1,VPLNWSGKTRRWSGKHLKVV,< -0.25
2,VPLSHGISERKTNGCFKPRS,< -0.25
3,VPLTDESGCAGTENILGANK,< -0.25
4,VPLWGG,< -0.25
5,VPM,< -0.25
6,VPN,< -0.25
7,VPNPARLDGSAEKAFDDRRT,< -0.25
8,VPPASHAPWSR,< -0.25
9,VPPAVSRLTRASVRWFSTQI,< -0.25
10,VPPRCGPVSFPGVSLGPVRR,< -0.25
11,VPRLVYFAIRFLAEI,< -0.25
12,VPRRSPRLDCMLVDERDLGC,< -0.25
13,VPRRSV,< -0.25
14,VPRSATSA,< -0.25
15,VPRSGWSWCKLGASETLSVT,< -0.25
16,VPS,< -0.25
17,VPSGQMANDFSNEPHANW,< -0.25
18,VPSWWHRRVAIRA,< -0.25
19,VPVPREASPFCPS,< -0.25
20,VPVVSVVRKVSIFRLLSNGQ,< -0.25
21,VQDWRAIGGTYDLGPAVAG,< -0.25
22,VQFGELSKKWLVSELVYGLE,< -0.25
23,VQGLEC,< -0.25
24,VQGSAAGGASASRSLY,< -0.25

row,Substance,growth estimate
1,VQGSPVQYGWVGVSRLHEPD,< -0.25
2,VQGVCAIG,< -0.25
3,VQHGGGSWLVLDVVGGPDAV,< -0.25
4,VQHWVRTTGFLTNRRVC,< -0.25
5,VQIIAMQWA,< -0.25
6,VQL,< -0.25
7,VQLLIGHT,< -0.25
8,VQLRSGQISVGRAKASLVAS,< -0.25
9,VQLVGPQRVRQSTCGASVFQ,< -0.25
10,VQMTDKVQP,< -0.25
11,VQNRLAWYDAFTDCYKLSAR,< -0.25
12,VQNVGGGGAHLFLVAYSLRR,-0.246
13,VQPG,< -0.25
14,VQRKAYYGDPVYP,< -0.25
15,VQRPYPLGGMGDVLVLCICK,< -0.25
16,VQRTASATTVNLFTSVCHLR,< -0.25
17,VQVVRGEAAMGGLKHEK,< -0.25
18,VQWEGIRPVDMYTRITYGSF,< -0.25
19,VRACLTLSAELSAPKCPRHI,< -0.25
20,VRAIALHGRF,< -0.25
21,VRCGGPRDVQ,< -0.25
22,VRCLVTRKIGACR,< -0.25
23,VRCMGCPPWTLCRG,-0.229
24,VRDVLERTLQPSRGRGDRYT,< -0.25
